Results deposited as PubChem BioAssay AID652272 (Drosophila RNAi Screening Center, 2013).
Purpose: 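Genome-wide knock-down search for components of Hedgehog signalling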 (primary screen). System: Drosophila clone 8 (Cl8) cells. Reagents: long dsRNA against Drosophila genes. Measurement: 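Plate reader light from a firefly reporter under a ptc promoter fragment that responds to Hedgehog, with Renilla light as transfection reference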. Reading the numbers: firefly Hh reporter signal: higher = more ptc reporter light; Renilla reference signal: higher = more Renilla control light. Active means: 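Called a hit if the two-replicate mean z-score lies below -2 or above +3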. Meaning of the calls: active = hit: reporter lowered or raised; inactive = not a hit.
The deposit covers about 21,000 reagents; this is an unselected part of those that have a named target and a result. In the full data, 503 (2.4%) got an active call. 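Raw plate light values, not normalised; calls rest on replicate z-scores that were not deposited; hits include reporter decreases as well as increases.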 Unmarked entries are inactive. No sequences are given here. The record does not give: the amount of reagent, the time to read-out.

| gene knocked down | amplicon | firefly Hh reporter signal, replicate 1 | firefly Hh reporter signal, replicate 2 | firefly Hh reporter signal, replicate 3 | Renilla reference signal, replicate 1 | Renilla reference signal, replicate 2 |
| --- | --- | --- | --- | --- | --- | --- |
| CG9062 | DRSC07327 | 86201 | 32052 | – | 2220 | 2608 |
| Dif | DRSC03316 | 1.02e5 | 73816 | – | 2698 | 5957 |
| mars | DRSC06656 | 1.39e5 | 5.21e5 | 68951 | 5048 | 26379 |
| CG6683 | DRSC10694 | 72374 | 54981 | – | 3829 | 2214 |
| gzl | DRSC12517 | 1.41e5 | 1.08e5 | – | 5408 | 4265 |
| lncRNA:bxd | DRSC13176 | 1896 | 2.80e5 | – | 513 | 6147 |
| Sgsh | DRSC14771 | 4.33e5 | 1.05e5 | – | 21655 | 2752 |
| Abp1 | DRSC09693 | 40745 | 50301 | 61680 | 4432 | 4636 |
| Rad9 | DRSC11263 | 88130 | 60281 | – | 3138 | 2769 |
| CG4367 | DRSC15568 | 4.84e5 | 69332 | – | 27276 | 1997 |
| Hsc70-5 | DRSC07442 | 1.17e5 | 88948 | – | 5131 | 4010 |
| CG1801 | DRSC20556 | 91996 | 2.14e5 | – | 2605 | 9104 |
| CG33158 | DRSC09708 | 5.36e5 | 1.27e5 | – | 6273 | 6273 |
| CG33158 | DRSC09709 | 1.28e5 | – | – | 8173 | 3993 |
| CG33158 | DRSC10438 | 73568 | – | – | 4986 | 2531 |
| Ilp5 | DRSC08998 | 1.49e5 | 2.49e5 | – | 4429 | 10800 |
| Tsp96F | DRSC14147 | 71984 | 1.17e5 | – | 1522 | 3335 |
| ECSIT | DRSC12348 | 84102 | 1.17e5 | – | 3505 | 3308 |
| CG11786 | DRSC14389 | 4.86e5 | 1.11e5 | – | 26529 | 3579 |
| Mlh1 | DRSC07473 | 76484 | 77340 | – | 3340 | 3090 |
| dpr18 | DRSC19606 | 64941 | 1.48e5 | – | 1203 | 6548 |
| tsg | DRSC20380 | 66646 | 3.34e5 | – | 1565 | 11900 |
| RabGGTa | DRSC12189 | 1.74e5 | 1.15e5 | – | 5856 | 4320 |

Only “firefly Hh reporter signal, replicate 2”, for 3 of the entries above:
Mlh1 [DRSC07473] = 77340
dpr18 [DRSC19606] = 1.48e5
tsg [DRSC20380] = 3.34e5
